# Results: the supplement of paper PMC8728848
# Some of the results follow.
# How the values were obtained:
# Test in all cases: glycan array binding signal (z-score within array); higher = stronger binding
# Settings in all cases: glycan notation: IUPAC condensed, linker removed
# Fuc(a1-2)Gal = target: Fuc(a1-2)Gal
# How it was run: (§1)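 Glycan array binding is given as a within-array Z-score, which can be read as non-binding when negative. The arrays, 3228 of them, came from the Consortium for Functional Glycomics database and were retained only where the protein sequence was available. Z-scores were averaged across arrays of the same protein sequence at different concentrations or buffers and across linkers.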
# Fuc(a1-2)Gal(b1-3)GalNAc = target: Fuc(a1-2)Gal(b1-3)GalNAc
# How it was run: as §1
# [1] = target: Fuc(a1-2)Gal(b1-3)GalNAc(a1-3)[Fuc(a1-2)]Gal(b1-4)Glc
# How it was run: as §1
# [2] = target: Fuc(a1-2)Gal(b1-3)GalNAc(a1-3)[Fuc(a1-2)]Gal(b1-4)GlcNAc
# How it was run: as §1
# [3] = target: Fuc(a1-2)Gal(b1-3)GalNAc(b1-3)Gal
# How it was run: as §1
# [4] = target: Fuc(a1-2)Gal(b1-3)GalNAc(b1-3)Gal(a1-4)Gal(b1-4)Glc
# How it was run: as §1
# [5] = target: Fuc(a1-2)Gal(b1-3)GalNAc(b1-4)[Neu5Ac(a2-3)]Gal(b1-4)Glc
# How it was run: as §1
# Fuc(a1-2)Gal(b1-3)GlcNAc = target: Fuc(a1-2)Gal(b1-3)GlcNAc
# How it was run: as §1
# [6] = target: Fuc(a1-2)Gal(b1-3)GlcNAc(b1-2)Man(a1-3)[Fuc(a1-2)Gal(b1-3)GlcNAc(b1-2)Man(a1-6)]Man(b1-4)GlcNAc(b1-4)GlcNAc
# How it was run: as §1
# [7] = target: Fuc(a1-2)Gal(b1-3)GlcNAc(b1-2)Man(a1-3)[Fuc(a1-2)Gal(b1-3)GlcNAc(b1-2)Man(a1-6)]Man(b1-4)GlcNAc(b1-4)[Fuc(a1-6)]GlcNAc
# How it was run: as §1
# [8] = target: Fuc(a1-2)Gal(b1-3)GlcNAc(b1-3)Gal(b1-4)Glc
# How it was run: as §1
# [9] = target: Fuc(a1-2)Gal(b1-3)GlcNAc(b1-3)GalNAc
# How it was run: as §1
# [10] = target: Fuc(a1-2)Gal(b1-3)GlcNAc(b1-3)[Fuc(a1-2)Gal(b1-3)GlcNAc(b1-6)]GalNAc
# How it was run: as §1
# [11] = target: Fuc(a1-2)Gal(b1-3)GlcNAc(b1-3)[Gal(b1-4)GlcNAc(b1-6)]Gal(b1-4)Glc
# How it was run: as §1
# [12] = target: Fuc(a1-2)Gal(b1-3)GlcNAc(b1-3)[Neu5Ac(a2-6)Gal(b1-4)GlcNAc(b1-6)]Gal(b1-4)Glc
# How it was run: as §1
# [13] = target: Fuc(a1-2)Gal(b1-3)GlcNAc6S
# How it was run: as §1
# [14] = target: Fuc(a1-2)Gal(b1-3)[Fuc(a1-4)]GlcNAc
# How it was run: as §1
# [15] = target: Fuc(a1-2)Gal(b1-3)[Fuc(a1-4)]GlcNAc(b1-2)Man(a1-3)[Fuc(a1-2)Gal(b1-3)[Fuc(a1-4)]GlcNAc(b1-2)Man(a1-3)]Man(b1-4)GlcNAc(b1-4)GlcNAc
# How it was run: as §1
# [16] = target: Fuc(a1-2)Gal(b1-3)[Fuc(a1-4)]GlcNAc(b1-2)Man(a1-3)[Fuc(a1-2)Gal(b1-3)[Fuc(a1-4)]GlcNAc(b1-2)Man(a1-6)]Man(b1-4)GlcNAc(b1-4)[Fuc(a1-6)]GlcNAc(b1-4)[Fuc(a1-6)]GlcNAc
# How it was run: as §1
# [17] = target: Fuc(a1-2)Gal(b1-3)[Fuc(a1-4)]GlcNAc(b1-3)[Fuc(a1-3)[Gal(b1-4)]GlcNAc(b1-6)]Gal(b1-4)Glc
# How it was run: as §1
# [18] = target: Fuc(a1-2)Gal(b1-3)[Fuc(a1-4)]GlcNAc(b1-3)[Gal(b1-4)GlcNAc(b1-6)]Gal(b1-4)Glc
# How it was run: as §1
# [19] = target: Fuc(a1-2)Gal(b1-4)Fuc(a1-3)]GlcNAc(b1-2)Man(a1-3)[Fuc(a1-2)Gal(b1-4)[Fuc(a1-3)]GlcNAc(b1-2)Man(a1-6)]Man(b1-4)GlcNAc(b1-4)GlcNAc
# How it was run: as §1
# Fuc(a1-2)Gal(b1-4)Glc = target: Fuc(a1-2)Gal(b1-4)Glc
# How it was run: as §1
# Fuc(a1-2)Gal(b1-4)Glc6S = target: Fuc(a1-2)Gal(b1-4)Glc6S
# How it was run: as §1
# Fuc(a1-2)Gal(b1-4)GlcNAc = target: Fuc(a1-2)Gal(b1-4)GlcNAc
# How it was run: as §1
# [20] = target: Fuc(a1-2)Gal(b1-4)GlcNAc(b1-2)Man
# How it was run: as §1
# [21] = target: Fuc(a1-2)Gal(b1-4)GlcNAc(b1-2)Man(a1-3)[Fuc(a1-2)Gal(b1-4)GlcNAc(b1-2)Man(a1-6)]Man(b1-4)GlcNAc(b1-4)GlcNAc
# How it was run: as §1
# [22] = target: Fuc(a1-2)Gal(b1-4)GlcNAc(b1-2)Man(a1-3)[Fuc(a1-2)Gal(b1-4)GlcNAc(b1-2)Man(a1-6)]Man(b1-4)GlcNAc(b1-4)[Fuc(a1-6)]GlcNAc
# How it was run: as §1
# [23] = target: Fuc(a1-2)Gal(b1-4)GlcNAc(b1-2)[Fuc(a1-2)Gal(b1-4)GlcNAc(b1-4)]Man(a1-3)[Fuc(a1-2)Gal(b1-4)GlcNAc(b1-2)Man(a1-6)]Man(b1-4)GlcNAc(b1-4)GlcNAc
# How it was run: as §1
# [24] = target: Fuc(a1-2)Gal(b1-4)GlcNAc(b1-3)Gal(b1-4)GlcNAc
# How it was run: as §1
binder,measurement,setting,value
LlpA (Arthrobacter sp) (protein) MGSSHHHHHHSSGLVPRGSHMTLHPETALRPGAAATSPNSRYRLLYQTDGNLVLYGPDGPLWDSGTNGHGAGACIMQADGNLVLYGPNDEYVWDTETDNNPGSRLVIQDDGNAVIYRPDGSPLWATETCQPPGSADSHVLQSGSTLTPTHGIRSANGLYGLLYQTDGNLVFYGPDGPLWDSGTNGRGAGACIMQPDGNLVLYGPHDEYVWDTETDNNPGSRLVIQDDGNAVIYRPDGNPTWVTGTH,glycan array binding signal (z-score),Fuc(a1-2)Gal,0.958
same,glycan array binding signal (z-score),Fuc(a1-2)Gal(b1-3)GalNAc,-0.371
same,glycan array binding signal (z-score),[1],-0.605
same,glycan array binding signal (z-score),[2],0.009
same,glycan array binding signal (z-score),[3],1.33
same,glycan array binding signal (z-score),[4],-0.47
same,glycan array binding signal (z-score),[5],0.077
same,glycan array binding signal (z-score),Fuc(a1-2)Gal(b1-3)GlcNAc,-0.163
same,glycan array binding signal (z-score),[6],-0.3
same,glycan array binding signal (z-score),[7],0.139
same,glycan array binding signal (z-score),[8],-0.863
same,glycan array binding signal (z-score),[9],-1.18
same,glycan array binding signal (z-score),[10],-0.781
same,glycan array binding signal (z-score),[11],0.971
same,glycan array binding signal (z-score),[12],-0.973
same,glycan array binding signal (z-score),[13],-0.629
same,glycan array binding signal (z-score),[14],-0.228
same,glycan array binding signal (z-score),[15],0.977
same,glycan array binding signal (z-score),[16],-0.025
same,glycan array binding signal (z-score),[17],-0.77
same,glycan array binding signal (z-score),[18],-1.04
same,glycan array binding signal (z-score),[19],1.72
same,glycan array binding signal (z-score),Fuc(a1-2)Gal(b1-4)Glc,0.721
same,glycan array binding signal (z-score),Fuc(a1-2)Gal(b1-4)Glc6S,0.269
same,glycan array binding signal (z-score),Fuc(a1-2)Gal(b1-4)GlcNAc,0.418
same,glycan array binding signal (z-score),[20],-0.637
same,glycan array binding signal (z-score),[21],1.58
same,glycan array binding signal (z-score),[22],0.626
same,glycan array binding signal (z-score),[23],0.125
same,glycan array binding signal (z-score),[24],-0.847

# 2 entries from above, with bars between the fields:
binder | measurement | setting | value
LlpA (Arthrobacter sp) (protein) MGSSHHHHHHSSGLVPRGSHMTLHPETALRPGAAATSPNSRYRLLYQTDGNLVLYGPDGPLWDSGTNGHGAGACIMQADGNLVLYGPNDEYVWDTETDNNPGSRLVIQDDGNAVIYRPDGSPLWATETCQPPGSADSHVLQSGSTLTPTHGIRSANGLYGLLYQTDGNLVFYGPDGPLWDSGTNGRGAGACIMQPDGNLVLYGPHDEYVWDTETDNNPGSRLVIQDDGNAVIYRPDGNPTWVTGTH | glycan array binding signal (z-score) | Fuc(a1-2)Gal(b1-4)Glc6S | 0.269
same | glycan array binding signal (z-score) | Fuc(a1-2)Gal(b1-4)GlcNAc | 0.418
